From publication PMC12186263, “Molecular Basis for Peptide Nitration by a Novel Cytochrome P450 Enzyme in RiPP Biosynthesis” (ACS Catalysis, 2025)

Tested on: ferrous RufO
Test: Stopped-flow transient kinetics of O2 and •NO binding to ferrous RufO
Conditions: 4 °C, pH 8.0
Description: 5 Transient kinetics of ferrous RufO binding to O2 and ^•NO. Spectral changes following the rapid mixing of 3.3 μM ferrous RufO bound to MRYLH with (A) 18 μM O2 and (C) 70 μM ^•NO over 0.2 s. The black-to-red spectral transitions represent the formation of (A) a ferric-superoxo intermediate and (C) a ferrous-nitrosyl complex. Insets show the time-dependent absorbance changes at 438 nm (the most pronounced shift), fitted using single exponential equations to determine rate constants (red trace). Dependence of rate constant as a function of gas concentration on (B) O2 and (D) ^•NO binding to ferrous RufO alone (blue) and peptide-bound RufO (red). Second-order rate constants were determined through linear fitting. TEXT PRINTED IN THE PICTURE: (A) + O2: kobs = 74.3 s^-1 | (B) RufO alone: k1 = 3.55 μM^-1 s^-1 | (B) peptide-bound: k1 = 3.83 μM^-1 s^-1 | (C) + •NO: kobs = 107.4 s^-1 | (D) RufO alone: k1 = 4.12 μM^-1 s^-1 | (D) peptide-bound: k1 = 2.35 μM^-1 s^-1
Stopped-flow spectroscopic data were collected using an Applied Photophysics SX20 stopped-flow system equipped with a photodiode array detector. The system was maintained in an anaerobic chamber (O2 < 1 ppm) and all sample preparation was done anaerobically. Measurements were performed at 4 °C. All samples were prepared in a buffer containing 50 mM Tris-HCl and 100 mM NaCl, pH 8.0. RufO was prereduced with a minimal amount of sodium dithionite. The final mixed concentrations of RufO and MRYLH (where applicable) were 3.3 and 24 μM, respectively. Solutions of varying O2 concentrations were prepared by diluting air-saturated buffer with anaerobic buffer. The concentrations of O2 in the air-saturated buffer were measured with an Oxygraph+ oxygen electrode (Hansatech). To generate ^•NO-containing solutions, 0.5 mM DEA NONOate (≥98%, Cayman Chemical) was incubated in anaerobic buffer for 4 h to ensure complete ^•NO release. The ^•NO concentrations were quantified based on a hemoglobin assay, and further dilutions were made with anaerobic buffer immediately prior to mixing. Experimental data were analyzed by the ProK software package from Applied Photophysics. The second-order rate constants were obtained from linear fitting, with the resulting equations: y = 3.55x + 54.4 for the mixing of RufO with O2, y = 3.83x + 6.5 for the ES complex with O2, y = 4.12x −158.0 for RufO with ^•NO, and y = 2.35x – 58.9 for the ES complex with ^•NO.
Figure S9. Transient kinetics of ferrous RufO alone binding to O2 and •NO Spectral changes following the rapid mixing of 3.3 μM ferrous RufO with (A) 18 μM O 2 and (B) μM •NO over 0.1 s. […] Insets show the time-dependent absorbance changes at 438 nm (the most pronounced shift), fitted using first-order exponential equations to determine rate constants (red trace). […]

Compound | Soret peak of complex formed (ferrous RufO alone) [nm] | Soret peak of complex formed (peptide-bound ferrous RufO) [nm]
nitric oxide [•NO] | 439 | 437
O=O [O2] | 428 | 432
